Reference: publication PMC4846877
No constants are given. Whether binding was seen depends on the method and setting. In cells and extracts the contact can be indirect. Some binding calls cover weakened binding; strength is not graded here.

Target: T1, TNF receptor I (TNFR1) (mouse (endogenous in L929)) (UniProt P25118)
T1 sequence: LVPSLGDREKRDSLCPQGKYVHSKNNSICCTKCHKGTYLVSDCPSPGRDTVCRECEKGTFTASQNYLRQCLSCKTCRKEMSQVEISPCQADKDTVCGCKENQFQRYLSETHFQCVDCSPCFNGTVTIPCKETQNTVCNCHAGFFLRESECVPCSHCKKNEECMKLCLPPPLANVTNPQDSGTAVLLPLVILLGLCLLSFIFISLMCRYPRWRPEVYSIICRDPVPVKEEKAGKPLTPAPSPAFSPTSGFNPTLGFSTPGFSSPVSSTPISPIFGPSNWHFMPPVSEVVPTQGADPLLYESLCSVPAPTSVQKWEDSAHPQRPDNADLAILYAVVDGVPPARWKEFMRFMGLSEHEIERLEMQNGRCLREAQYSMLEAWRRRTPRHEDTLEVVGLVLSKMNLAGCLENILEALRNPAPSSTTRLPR
Test: co-IP; L929 cells treated with TNF (15 ng/mL) for 5 or 15 min without or with WETC (0.4 mg/mL); extracts in M2 buffer (20 mM Tris pH 7.6, 0.5% NP-40, 250 mM NaCl) precipitated with anti-TNFR1 or anti-IKK-γ antibodies and protein G-A agarose overnight at 4 °C; immunoblot

- binding: binds
B1: TRADD (protein, UniProt Q3U0V2 1-310)
chain: MAAGQNGHEEWVGSAYLFLESAVDKVILSEAYTDPKKKVAIYKALQTALSESGDSSDVLQILKIHCSDPQLIVQLRFCGRVLCGRFLQAYREGALRTALQRCMAPALAQEALRLQLELRAGAEQLDSWLTDEERCLNYILAQKPDRLRDEELAELEDELCKLTCDCTGQGGAIQVASAGSKFPVSSPTEEKPLPAACQTFLFHGQLVVNRPLTLQDQQTFARSVGLKWRRVGRSLQRNCRALRDPALDSLAYEYERDGLYEQAFQLLRRFMQAEGRRATLQRLVEALEENELTSLAEDLLGQAEPDGGLA
